Results as given in paper PMC4236683.
These are yes or no findings as the source states them, for the method shown. Some entries that bind do so weakly or less than the wild type. Where a sequence is shown, tags or fusion partners need not be part of it.

Molecular target: T1, endogenous Sema5A on mouse hippocampal (dentate gyrus) neurons (mouse (endogenous in primary hippocampal neurons)) (UniProt Q62217)
T1 sequence: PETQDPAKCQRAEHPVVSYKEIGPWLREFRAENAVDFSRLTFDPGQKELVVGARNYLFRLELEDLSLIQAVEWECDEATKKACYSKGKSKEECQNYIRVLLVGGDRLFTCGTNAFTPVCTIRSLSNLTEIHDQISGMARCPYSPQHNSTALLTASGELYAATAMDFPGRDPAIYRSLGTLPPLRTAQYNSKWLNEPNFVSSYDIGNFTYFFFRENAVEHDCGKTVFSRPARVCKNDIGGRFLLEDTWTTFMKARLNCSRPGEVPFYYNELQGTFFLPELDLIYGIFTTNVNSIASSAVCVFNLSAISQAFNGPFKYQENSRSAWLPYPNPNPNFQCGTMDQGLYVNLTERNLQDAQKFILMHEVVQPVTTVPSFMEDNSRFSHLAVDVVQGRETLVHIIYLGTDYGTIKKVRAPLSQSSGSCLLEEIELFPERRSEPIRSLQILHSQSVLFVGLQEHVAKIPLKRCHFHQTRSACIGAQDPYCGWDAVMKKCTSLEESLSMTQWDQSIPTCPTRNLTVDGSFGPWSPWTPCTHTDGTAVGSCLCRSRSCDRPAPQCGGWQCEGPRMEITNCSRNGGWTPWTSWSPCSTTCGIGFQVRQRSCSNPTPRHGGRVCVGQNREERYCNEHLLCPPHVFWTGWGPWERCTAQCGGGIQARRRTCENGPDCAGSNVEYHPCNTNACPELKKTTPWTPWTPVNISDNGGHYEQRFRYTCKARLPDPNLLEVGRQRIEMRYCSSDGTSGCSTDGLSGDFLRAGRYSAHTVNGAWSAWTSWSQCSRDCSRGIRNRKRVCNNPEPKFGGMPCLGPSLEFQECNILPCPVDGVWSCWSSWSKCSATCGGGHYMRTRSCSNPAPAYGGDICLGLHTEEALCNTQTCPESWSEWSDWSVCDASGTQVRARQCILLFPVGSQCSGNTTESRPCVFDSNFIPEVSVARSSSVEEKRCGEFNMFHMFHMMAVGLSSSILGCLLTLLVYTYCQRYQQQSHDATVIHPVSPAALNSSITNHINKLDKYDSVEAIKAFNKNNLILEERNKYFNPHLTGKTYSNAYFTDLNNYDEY
Test: binding of AP-clustered Fc fusion protein to primary neurons; non-transfected primary mouse hippocampal neurons of WT and knock-out mice, Fc fusion protein preclustered with anti-human IgG-AP, NeuroBasal medium, NBT/BCIP; only the binder purified

B1: sema domain of PlexA2 fused to Fc (PlexA2^SD-Fc) (Fc fusion, UniProt P70207 35-508)
chain: MPQYSTFHSENRDWTFNHLTVHRRTGAVYVGAINRVYKLTGNLTIQVAHKTGPEEDNKACYPPLIVQPCSEVLTLTNNVNKLLIIDYSENRLLACGSLYQGVCKLLRLDDLFILVEPSHKKEHYLSSVNKTGTMYGVIVRSEGEDGKLFIGTAVDGKQDYFPTLSSRKLPRDPESSAMLDYELHSDFVSSLIKIPSDTLALVSHFDIFYIYGFASGGFVYFLTVQPETPDGMAINSAGDLFYTSRIVRLCKDDPKFHSYVSLPFGCTRAGVEYRLLQAAYLAKPGEALAQAFNISSDEDVLFAIFSKGQKQYHHPPDDSALCAFPIRAINLQIKERLQSCYHGEGNLELNWLLGKDVQCTKAPVPIDDNFCGLDINQPLGGSTPVEGLTLYTTSRDRLTSVASYVYNGYSVVFVGTKSGKLKKIRADGPPHGGVQYEMVSVFKDGSPILRDMAFSINQLYLYVMSERQVTRVPV
B1 was tested, and the binding was “binds”.
